PubChem BioAssay AID1259308, NCATS | 2017
Here is a random part of about 59,000 reagents tested. Of all reagents, about 1,510 (2.6%) are marked active. 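Calls use total luciferase alone and ignore viability, so some active siRNAs may act by altering cell number.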 A number with no mark means an inactive call. Reagents against one gene are numbered here. Not all columns of the deposit are shown.

Test: 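Candidate targets for better recombinant protein yield in mammalian cells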 (primary screen)
System: human HEK293 embryonic kidney cells stably expressing firefly luciferase (HEK-CMV-Luc2-Hygro)
Reagents: single siRNA against human genes, 0.8 pmol siRNA per well
Duration: 72 h
Measurement: 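Luciferase light (ONE-Glo) measured on one replicate plate set and viability (CellTiter-Glo) on the other, scaled to a negative control siRNA, with robust z-scores and luciferase per cell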
Reading the numbers: total luciferase, z-score and total luciferase, % of control: higher = more reporter protein produced; luciferase per cell, z-score: higher = more reporter output per viable cell
Rule for the call: 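An siRNA counts as active if its total luciferase robust z-score exceeds 3; genes with two or more such siRNAs out of three were retested with fresh siRNAs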
Meaning of the calls: active = raised luciferase; inactive = no rise

gene | reagent no. | total luciferase, z-score | total luciferase, % of control | luciferase per cell, z-score
SLC60A2 | 1 | -0.742 | 67.1 | -1.08
SLC60A2 | 2 | -0.0375 | 81.1 | -0.531
SLC60A2 | 3 | -0.337 | 75.2 | -1.25
CLCN6 | 1 | 0.117 | 84.2 | -0.705
CLCN6 | 2 | -0.0334 | 81.2 | -0.17
CLCN6 | 3 | -0.419 | 73.6 | -0.271
HAO2 | 1 | -0.206 | 77.8 | 0.0871
HAO2 | 2 | -1.01 | 61.9 | -0.957
HAO2 | 3 | -0.266 | 76.6 | -0.788
LOC645984 (retired record) | 1 | 0.256 | 87 | 0.14
LOC645984 (retired record) | 2 | 0.859 | 99 | 0.917
LOC645984 (retired record) | 3 | 0.369 | 89.2 | -0.376
SIK1 | 1 | 0.144 | 84.8 | -0.128
SIK1 | 2 | -0.496 | 72 | -0.822
SIK1 | 3 | -0.647 | 69 | -0.921
ZNF600 | 1 | -0.00539 | 81.8 | -0.0346
ZNF600 | 2 | 1.46 | 111 | 1.78
ZNF600 | 3 | -1.01 | 61.8 | -0.601
CDKN2B | 1 | -0.366 | 74.6 | -0.849
CDKN2B | 2 | -0.543 | 71.1 | -0.479
CDKN2B | 3 | 0.304 | 87.9 | 1.29
FBLIM1 | 1 | -1.26 | 56.8 | -0.577
FBLIM1 | 2 | 0.595 | 93.7 | 0.29
FBLIM1 | 3 | 2.28 | 127 | 1.48
MPDU1 | 1 | 1.89 | 120 | 1.3
MPDU1 | 2 | -0.754 | 66.9 | -0.744
MPDU1 | 3 | -1.37 | 54.7 | -1.35
KIF4A | 1 | 0.272 | 87.3 | 0.573
KIF4A | 2 | 1.24 | 107 | 1.07
KIF4A | 3 | -0.118 | 79.5 | 0.461
BPIFA3 | 1 | -0.874 | 64.5 | -0.963
BPIFA3 | 2 | 4.27 (active) | 167 | 3.22
BPIFA3 | 3 | -0.0659 | 80.6 | -0.564

No new results follow: 3 of the entries above.
gene | reagent no. | total luciferase, z-score | total luciferase, % of control | luciferase per cell, z-score
ZNF600 | 1 | -0.00539 | 81.8 | -0.0346
ZNF600 | 2 | 1.46 | 111 | 1.78
ZNF600 | 3 | -1.01 | 61.8 | -0.601

Next reagents:
gene | reagent no. | total luciferase, z-score | total luciferase, % of control | luciferase per cell, z-score
SLC35F6 | 1 | -1.72 | 47.7 | -2.42
SLC35F6 | 2 | -0.183 | 78.2 | 0.7
SLC35F6 | 3 | -1.02 | 61.5 | 0.42
DYNLL1 | 1 | -0.315 | 75.6 | -0.156
DYNLL1 | 2 | 0.846 | 98.7 | 0.618
DYNLL1 | 3 | 2.47 | 131 | 1.57
SP6 | 1 | -0.149 | 78.9 | 0.00868
SP6 | 2 | -2.35 | 35.2 | -1.97
SP6 | 3 | 1 | 102 | 1.38
FTMT | 1 | 0.578 | 93.4 | 1.38
FTMT | 2 | 0.301 | 87.9 | 0.074
FTMT | 3 | 1.05 | 103 | 0.573
SEC22A | 1 | 1.71 | 116 | 0.625
SEC22A | 2 | -2.51 | 32.1 | -3.78
SEC22A | 3 | 2.27 | 127 | 1.27
UQCC1 | 1 | 0.284 | 87.5 | 0.378
UQCC1 | 2 | 0.573 | 93.3 | 0.363
UQCC1 | 3 | -1.18 | 58.5 | -0.938
ZHX2 | 1 | 0.0263 | 82.4 | 0.032
ZHX2 | 2 | -0.483 | 72.3 | -0.555
ZHX2 | 3 | 0.521 | 92.2 | 0.336
LOC344382 | 1 | 0.0626 | 83.1 | 0.49
LOC344382 | 2 | -0.958 | 62.8 | -0.854
LOC344382 | 3 | -0.0248 | 81.4 | -0.00261
